Some of the results follow. Single values are uncertain here, since repeats match poorly.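 HEK293T cells were given each compound shortly before transfection with a reporter in which red mCherry is followed by the SARS-CoV-2 frameshift element and then GFP in the −1 frame, so GFP appears only after frameshifting.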
Key:
[1] = tested on: SARS-CoV-2 -1 PRF reporter mCherry-FSE-GFP(-1); assay: mCherry (red) intensity as percent of control; higher = higher upstream reporter expression; conditions: 10 µM; 24 h; HEK293T
[2] = tested on: SARS-CoV-2 -1 PRF reporter mCherry-FSE-GFP(-1); assay: percent effect, decrease of GFP/mCherry ratio (-1 PRF reporter) relative to controls; higher = stronger frameshift inhibition; conditions: 10 µM; 24 h; HEK293T

Row | Structure (SMILES) | mCherry [1] [%] | percent effect [2] [%]
1 | Cc1ccnc(NS(=O)(=O)c2ccc(N)cc2)n1 [sulfamerazine] | 124 | -1.29
2 | CN1CCC[C@@H]1CCO[C@](C)(c1ccccc1)c1ccc(Cl)cc1 [Clemastine] | 78.5 | -4.63
3 | C[N+](C)(C)CCCCCC[N+](C)(C)C [hexamethonium bromide] | 107 | -2.19
4 | CC(=O)O[C@]1(C(C)=O)CC[C@H]2[C@@H]3C[C@H](C)C4=CC(=O)CC[C@]4(C)[C@H]3CC[C@@]21C [Medroxyprogesterone 17-Acetate] | 56.3 | 3.26
5 | CCN(CC)CCCC(C)Nc1cc(OC)cc2cccnc12 (stereo not given) [pamaquine] | 76.4 | -1.11
